Laboratory results: PubChem BioAssay AID1259264 (Sanger Institute, 2017)

- Purpose: 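Kinases needed for CL40 growth and those that boost anti-cancer drug killing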 (primary screen)
- Cells: CL40 human colorectal cancer cells
- Reagents: siRNA pool against human genes
- Challenge: DMSO, or an anchor drug: BYL719 at 1 µM, cetuximab at 5 µg/ml, or trametinib at 10 nM
- Measured: 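Viability as a fraction of non-targeting pool control (replicates averaged), control-based robust z-score, plus averaged synergy for each drug: BYL719 1 µM, cetuximab 5 µg/ml, trametinib 10 nM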
- Reading the numbers: robust z-score, siRNA alone: higher = more viable cells
- Hit rule: 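Essential call: siRNA with no drug reaches a robust z under -3 (low cell count); drug synergy scores do not affect it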
- Calls: active = essential (lowers viability alone); inactive = not essential
Here is one part, drawn at random, of 794 reagents tested. Of all reagents, 15 (1.9%) are marked active. 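Calls rest on knock-down alone at z-score below -3; synergy scores with the three drugs do not decide them.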 Not all columns of the deposit are shown. Reagent sequences are not shown. The record does not give: the amount of reagent, the time to read-out.

{"target gene": "MAK (male germ cell associated kinase)", "robust z-score, siRNA alone": 0.539, "call": "inactive"}
{"target gene": "NME4 (NME/NM23 nucleoside diphosphate kinase 4)", "robust z-score, siRNA alone": -0.716, "call": "inactive"}
{"target gene": "MPP3 (MAGUK p55 scaffold protein 3)", "robust z-score, siRNA alone": -0.252, "call": "inactive"}
{"target gene": "MAGI2", "robust z-score, siRNA alone": 0.539, "call": "inactive"}
{"target gene": "MAST4", "robust z-score, siRNA alone": 0.539, "call": "inactive"}
{"target gene": "MKNK1 (MAPK interacting serine/threonine kinase 1)", "robust z-score, siRNA alone": 0.539, "call": "inactive"}
{"target gene": "MAP3K11 (mitogen-activated protein kinase kinase kinase 11)", "robust z-score, siRNA alone": 0.539, "call": "inactive"}
{"target gene": "FXN (frataxin)", "robust z-score, siRNA alone": 0.165, "call": "inactive"}
{"target gene": "IP6K3 (inositol hexakisphosphate kinase 3)", "robust z-score, siRNA alone": -0.304, "call": "inactive"}
{"target gene": "GUCY2F (guanylate cyclase 2F, retinal)", "robust z-score, siRNA alone": 0.539, "call": "inactive"}
{"target gene": "ABL2 (ABL proto-oncogene 2, non-receptor tyrosine kinase)", "robust z-score, siRNA alone": 0.539, "call": "inactive"}
{"target gene": "GK (glycerol kinase)", "robust z-score, siRNA alone": 0.539, "call": "inactive"}

Reformatted: results already given
IP6K3 (inositol hexakisphosphate kinase 3)
- robust z-score, siRNA alone: -0.304
- call: inactive

GUCY2F (guanylate cyclase 2F, retinal)
- robust z-score, siRNA alone: 0.539
- call: inactive

ABL2 (ABL proto-oncogene 2, non-receptor tyrosine kinase)
- robust z-score, siRNA alone: 0.539
- call: inactive

Additional entries follow.
{"target gene": "CEP290 (centrosomal protein 290)", "robust z-score, siRNA alone": 0.539, "call": "inactive"}
{"target gene": "MECOM (MDS1 and EVI1 complex locus)", "robust z-score, siRNA alone": 0.539, "call": "inactive"}
{"target gene": "EPHA7 (EPH receptor A7)", "robust z-score, siRNA alone": 0.19, "call": "inactive"}
{"target gene": "RPS6KA5 (ribosomal protein S6 kinase A5)", "robust z-score, siRNA alone": -1.23, "call": "inactive"}
{"target gene": "ALK (ALK receptor tyrosine kinase)", "robust z-score, siRNA alone": 0.539, "call": "inactive"}
{"target gene": "TRIB2 (tribbles pseudokinase 2)", "robust z-score, siRNA alone": 0.236, "call": "inactive"}
{"target gene": "LRRK1 (leucine rich repeat kinase 1)", "robust z-score, siRNA alone": 0.539, "call": "inactive"}
{"target gene": "RAD21 (RAD21 cohesin complex component)", "robust z-score, siRNA alone": 0.539, "call": "inactive"}
{"target gene": "CSNK1E (casein kinase 1 epsilon)", "robust z-score, siRNA alone": 0.0253, "call": "inactive"}
{"target gene": "CDKL4 (cyclin dependent kinase like 4)", "robust z-score, siRNA alone": 0.539, "call": "inactive"}
{"target gene": "DGKD (diacylglycerol kinase delta)", "robust z-score, siRNA alone": 0.539, "call": "inactive"}
{"target gene": "HIPK2 (homeodomain interacting protein kinase 2)", "robust z-score, siRNA alone": 0.539, "call": "inactive"}
